# Measurements: patent US11446353B2, “Compositions and methods for the treatment of fungal infections” (priority 2014, dated 2022)
# Test system: Coccidioides posadasii Δcts2/Δard1/Δcts3
smiles,measurement,value
CC/C(=C(\c1ccccc1)c1ccc(OCCN(C)C)cc1)c1ccccc1 [Tamoxifen],IC50 values over the course of the experiment,slowly increased
